End groups of sequences in plain letters are not given here.

A short description of this series: general procedure: Fmoc solid-phase peptide synthesis; 2-Chlorotrityl Chloride Resin. Conditions: whole synthesis.
CASLLRCTGCCGDENLHCAPA: the “final HPLC purity” value amounted to 97.31%.

Turning to “CVSLLRCTGCC GDENLHCVPV (CVSLLRCTGCCGDENLHCVPV; angiogenesis-inhibiting peptide ZY1)”, the “final HPLC purity” value is reported as 98.85%.

As for CVSLLRCTGCCGDENLHC, the “final HPLC purity” value is reported as 98.63%. Consider VSLLRCTGCCGDENLHCVPV, for which the “final HPLC purity” value amounted to 98.01%.

Values taken from patent US9023795B2 (Shanghai First People's Hospital, priority 2010, dated 2015).
